Data taken from PubChem BioAssay AID1159506, deposited by NCATS (2015).

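Luminescence from an EWS-FLI1 target-promoter (NR0B1) reporter, set against a CMV-promoter reporter, two days after silencing single genes in TC32 Ewing sarcoma cells.
Each siRNA was applied at 20 nM.
A z-score of the log NR0B1-over-CMV signal, less the median of siRNAs with the same seed; more negative means a stronger specific loss of the NR0B1 reporter.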

The strongest results of the screen are mostly left out here.
Sequences are the guide (antisense) strand, without overhang.

| siRNA | target gene | seed-corrected z-score |
|---|---|---|
| `UUUCUUAGAAGGCCGUUCU` | IRF2 | 0.1794 |
| `AUAGGGUUGUUCACAUUGC` | CAPN6 | 0.1138 |
| `UUUUGGUUUCGUAAGUUUC` | SUN1 | 0.3289 |
| `UUCGGAUGCAGAUAAACUG` | HDAC6 | 0.249 |
| `UGAGAUAAUGGGUGAGUAG` | LOC730222 | 0.2227 |
| `UCUUCUGUCGGUACUGCUG` | ATAD3B | 0.2471 |
| `UCGUCCUACAGGAAAUUGG` | HIST1H2AM | -0.6505 |
| `UAUCUUGCAGGAGAUACAC` | CD96 | -0.7521 |
| `AAAGAGGUCGGCAAAGUUC` | AP5B1 | -0.7408 |
| `UUCCUUAACAUCCAGAGUC` | APLP2 | 1.814 |
| `UCUGUUAGUUCUGUCGUUG` | SENP6 | -1.266 |
| `UUGACCUUGUUUACAAUCC` | TNFRSF9 | 0.08668 |
| `UCCUGUUCAGGGAUGUUCG` | MRPL46 | 3.632 |
| `UUCAGUACCACCUUAUCAU` | BMP4 | 0.193 |
| `UGUUUUCUGAGUACCUCCC` | CCR6 | 0.5733 |
| `UCUGGAUCUGAUGAAGUCG` | SPIRE1 | -1.374 |
| `UUCAGGCCCAGAUCAGCAG` | HINT1 | -0.1601 |
| `UUUGAGAUUACUAUAGGAG` | CENPL | 0.147 |
| `UCAGCAUAUAGUAUUUGUC` | RRP1B | 0.1415 |
| `AAAUGGUCUUGUAACAGCC` | BNIP2 | 0.1938 |
| `UUCAUAUUGGGUCAAACUC` | TYR | 0.7193 |
| `AAAAAUCCCAGCAUAAGGC` | AMBRA1 | 1.492 |
| `UAUGGUACAUAGACGUGGG` | USB1 | 0.2321 |
| `UUUUGCAUCACAGCGAUAU` | PLA2G12B | -0.6328 |
| `UAUUGAAUGAAGGCCCGAG` | USP29 | 0.546 |
| `UUUAUGUCAAGCAGCAUCU` | KRT15 | -0.5863 |
| `UCAUUUCCAACGGGACUGC` | TDRD10 | -0.4625 |
| `AAAGUACAUGGGCUGGUGC` | OR52M1 | -0.4824 |
| `UGAGUUGUAGGUCUUGCAC` | DEFB112 | -0.5976 |
| `UCGACCAUUACUGUAAACC` | LOC644686 | 0.1098 |
| `UUGGUGUCUUGAGAUGUGG` | C19orf73 | 1.044 |
| `AGAGUGAUAUGAGUCCUCC` | CCSER1 | 0.05024 |
| `UGUUUGGAAAUGCCGCCGC` | LOC651337 | 0.3353 |
| `AAUAGUCGAACAGCUUCCC` | CYC1 | -0.185 |
| `UUCCGAGGAAUUGUAAUAG` | TRIM11 | 0.3775 |
| `UUAAUUCCCACCGGUAGCG` | CMTM2 | -0.9771 |
| `UUUCGGAAGAUGUUGUCCC` | RRAGB | 0.02042 |
| `AGAUUUCCUCGUAAAGGCC` | MAMDC2 | -0.7428 |
| `UAAGUAGAAUCGCAGGAAG` | MRPS25 | 0.3284 |
| `UAUCAUCCCAGGACGUACA` | TNFRSF10C | 0.5391 |
| `UAACGAAGCGCAGACUCCG` | ACP2 | -0.9095 |
| `AACCUUACCAAAUUCACUG` | SLC9C2 | 0.6093 |
| `UUGACAAUCACGUCUGCGC` | DAO | -0.8393 |
| `UUAGGAGCGAGCUGUAUAA` | TDRD10 | -1.218 |
| `ACUGAUAUCAAGAUACUGG` | TLR1 | -0.3671 |
| `UGCGUCAUCAUGUAGGUGU` | EVX2 | 0.4537 |
| `UUCGUUCAGCUAGCAGUUG` | ITIH2 | 1.186 |
| `UAACCUUGUAUCAAUAUUG` | KIAA0355 | 0.248 |
| `UUUCUGAUAAGGUCCGAAC` | LATS2 | 0.5899 |
| `UUUCUGCUUGCCUGGAUGC` | SLC51B | -1.964 |
| `UUUGGUCACCUUGAUGCGA` | ACOT1 | -0.3975 |
| `UCCUUUGUUGCUACGACCC` | PAFAH1B1 | -0.3118 |
| `UUCAUUCCAAAGAUUAGUG` | EPM2AIP1 | -0.5046 |
| `UCACUAACUUGGAAACUUC` | ALB | 0.808 |
| `UUCGAUAUUAUCUACUCGC` | MAP3K5 | -0.306 |

Some entries from above, unchanged:

siRNA,target gene,seed-corrected z-score
UAUGGUACAUAGACGUGGG,USB1,0.2321
UAAGUAGAAUCGCAGGAAG,MRPS25,0.3284
UCGACCAUUACUGUAAACC,LOC644686,0.1098
UUUAUGUCAAGCAGCAUCU,KRT15,-0.5863
UUUCGGAAGAUGUUGUCCC,RRAGB,0.02042
UGAGUUGUAGGUCUUGCAC,DEFB112,-0.5976